Results from PubChem BioAssay AID2417 (National Center for Advancing Translational Sciences (NCATS), 2010).
About 4,300 (3.1%) of roughly 140,000 compounds were called active. Inconclusive means that the source gave no clear call. Such entries were picked first, then a sample of the others.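 Rule for the calls: active = readout at or below -70, meaning at least 70% loss of cells showing the perinucleolar compartment, a nuclear body marking cancer cells; inconclusive = readout between -30 and a set limit; inactive = the rest.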

Assay: High Content Assay for Compounds that inhibit the Assembly of the Perinucleolar Compartment;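 note: plate controls were DMSO wells for no effect and camptothecin positive control wells for full effect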
Conditions: PC3M PTB-GFP, PNC prevalence imaging, 16 h; at 10 µM; stronger effect = lower value
Outline: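 PC3M cells stably expressing PTB-GFP, 750–1000 cells/well, treated 16 h at 37 °C with compound (23 nl of library stock), in duplicate. After paraformaldehyde fixation and Hoechst stain, imaged at 20x; PNC prevalence scored by image analysis.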

Question: Which activity change (PNC), negative = inhibition does the source give for `COc1ccc(N2CCN(S(=O)(=O)c3ccc(Cl)c(C(F)(F)F)c3)CC2)cc1` here?
Answer: inconclusive: -33%

Question: With `O=C(COC(=O)C1(c2ccc(F)cc2)CCCC1)N1CCN(C(=O)c2ccco2)CC1` as the molecule, how does the activity change (PNC), negative = inhibition read?
Answer: inconclusive: -37.5%

Question: For `O=C(NN1C(=O)C2C3C=CC(C3)C2C1=O)c1ccncc1` (stereo not given), which activity change (PNC), negative = inhibition is on record?
Answer: active: -113%

Question: For `O=C(/C=N\O)NCCCNCc1ccccc1`, which activity change (PNC), negative = inhibition is on record?
Answer: inconclusive: -68.6%

Question: With `O=C(NCC1CCCO1)c1ccc(COc2ccc(Br)cc2)cc1` (stereo not given) as the molecule, how does the activity change (PNC), negative = inhibition read?
Answer: inactive: -19.2%

Question: For `N#Cc1c(NC(=O)CSc2nnc(-c3ccncc3)n2CC2CCCO2)sc2c1CCCC2` (stereo not given), which activity change (PNC), negative = inhibition is on record?
Answer: inactive: -15.3%

Question: For `CCCCOc1ccc(-c2nnc(-c3ccncc3)o2)cc1`, which activity change (PNC), negative = inhibition is on record?
Answer: inconclusive: -31.9%

Question: For `COc1cc2c(=O)n(Cc3ccco3)c(=O)n(CC(=O)c3cccc(Br)c3)c2cc1OC`, which activity change (PNC), negative = inhibition is on record?
Answer: inconclusive: -31.3%

Question: For `CC(C)(C)c1ccc(C(=O)NC(=S)Nc2ccc(N3CCOCC3)cc2)cc1`, which activity change (PNC), negative = inhibition is on record?
Answer: active: -123%

Question: Which activity change (PNC), negative = inhibition does the source give for `O=c1[nH]c2cc3c(cc2cc1C(c1nnnn1C1CCCC1)N1CCSCC1)OCCO3` (stereo not given) here?
Answer: inconclusive: -37%

Question: With `CCOC(=O)Cc1csc(SCC(=O)NC2CCCCC2)n1` as the molecule, how does the activity change (PNC), negative = inhibition read?
Answer: inactive: 27.8%

Question: With `CC(=O)N(CN1C(=O)C2CC=CCC2C1=O)c1cccc(Cl)c1` (stereo not given) as the molecule, how does the activity change (PNC), negative = inhibition read?
Answer: inconclusive: -60.5%

Question: For `c1ccn2c(Cc3nnc4ccccn34)nnc2c1`, which activity change (PNC), negative = inhibition is on record?
Answer: inconclusive: -37.2%

Question: With `COc1ccc(/C(O)=C2/C(=O)C(=O)N(CCN(C)C)C2c2ccccn2)cc1OC` (stereo not given) as the molecule, how does the activity change (PNC), negative = inhibition read?
Answer: inconclusive: -42.7%

Question: With `COc1ccc(N2C(=O)C(Cl)=C(N(CCO)Cc3ccccc3)C2=O)cc1` as the molecule, how does the activity change (PNC), negative = inhibition read?
Answer: active: -125%

Question: For `Cc1ccc(-c2c(C)c(-c3ccc(F)cc3)nc(N)c2C#N)o1`, which activity change (PNC), negative = inhibition is on record?
Answer: inactive: 48.8%

Question: With `C=CCn1cnc2c(c1=O)c1nc3ccccc3nc1n2Cc1ccccc1` as the molecule, how does the activity change (PNC), negative = inhibition read?
Answer: inactive: -7.5%

Question: With `CC1(C)OC(=O)N(c2ccccn2)C1(C)O` (stereo not given) as the molecule, how does the activity change (PNC), negative = inhibition read?
Answer: inconclusive: -42%

Question: Which activity change (PNC), negative = inhibition does the source give for `CC(=O)Oc1ccc2c(c1)OC(c1ccccc1)CC21CC(C)(C)NC(=O)N1` (stereo not given) here?
Answer: inconclusive: -37.5%

Question: Which activity change (PNC), negative = inhibition does the source give for `O=C1c2ccccc2C(=O)N1CCCC(=O)N1CCCc2ccccc21` here?
Answer: inconclusive: -42.3%

Question: Which activity change (PNC), negative = inhibition does the source give for `Cc1ccccc1CN1CCN(CC(=O)NCc2ccco2)C1=O` here?
Answer: inconclusive: -56.6%

Question: With `O=C(N/N=C(\c1ccccc1)c1cccnc1)C(O)(c1ccccc1)c1ccccc1` as the molecule, how does the activity change (PNC), negative = inhibition read?
Answer: active: -91.9%

Question: For `Cn1c(SCC(N)=O)nnc1C1CCN(C(=O)NC2CCCCC2)CC1`, which activity change (PNC), negative = inhibition is on record?
Answer: inconclusive: -30.1%

Question: With `CCN(CC)C1=NC=CC(c2ccccc2)=CC1C` (stereo not given) as the molecule, how does the activity change (PNC), negative = inhibition read?
Answer: inactive: -20.8%

Question: With `COc1ccc(S(=O)(=O)N(C)CC(=O)N2CCCCCC2)cc1OC` as the molecule, how does the activity change (PNC), negative = inhibition read?
Answer: inconclusive: -36%

Question: For `CCOc1ccccc1C(=O)N[C@H](C(=O)OCc1cc(=O)oc2cc(C)ccc12)C(C)C`, which activity change (PNC), negative = inhibition is on record?
Answer: inconclusive: -33%

Question: For `COc1ccc(C2=NOC(C(=O)NCCCn3ccnc3)C2)cc1` (stereo not given), which activity change (PNC), negative = inhibition is on record?
Answer: inactive: 11.3%

Question: Which activity change (PNC), negative = inhibition does the source give for `O=C(Nc1nccs1)c1cc(-c2ccco2)nc2ccccc12` here?
Answer: active: -88.8%

Question: With `O=C(CCCCCCN1C(=O)c2ccccc2C1=O)NC1CCCCC1` as the molecule, how does the activity change (PNC), negative = inhibition read?
Answer: inactive: 1.74%

Question: Which activity change (PNC), negative = inhibition does the source give for `NS(=O)(=O)c1ccc(C(=O)O)cc1` here?
Answer: inconclusive: -30.9%

Question: Which activity change (PNC), negative = inhibition does the source give for `Oc1cccc(Nc2nc(NCC3CCCO3)c3ccccc3n2)c1` (stereo not given) here?
Answer: inconclusive: -38.5%

Question: For `CCC1(N(C(C)=O)c2ccc(OC)cc2)C(=O)c2ccccc2C1=O`, which activity change (PNC), negative = inhibition is on record?
Answer: inconclusive: -61.9%

Question: Which activity change (PNC), negative = inhibition does the source give for `COc1ccccc1NC(=O)COC(=O)c1ccccc1OCC(=O)Nc1ccc(SC(F)F)cc1` here?
Answer: inactive: 14.7%

Question: For `O=C(NC(NC(=S)Nc1cccc(Cl)c1)C(Cl)(Cl)Cl)OCc1ccccc1` (stereo not given), which activity change (PNC), negative = inhibition is on record?
Answer: inconclusive: -49.4%

Question: For `O=C(CCC(=O)Nc1ccccc1)NNC(=O)c1ccco1`, which activity change (PNC), negative = inhibition is on record?
Answer: inconclusive: -38.4%

Question: Which activity change (PNC), negative = inhibition does the source give for `COC(=O)C(F)(Sc1c(C)n(C)n(-c2ccccc2)c1=O)C(F)(F)F` (stereo not given) here?
Answer: inconclusive: -38.5%

Question: Which activity change (PNC), negative = inhibition does the source give for `Nc1ccc(Nc2ccccc2)c(Cl)c1` here?
Answer: inactive: -22.5%

Question: For `COc1ccc(OC)c(NC(=O)Cn2cccc2)c1`, which activity change (PNC), negative = inhibition is on record?
Answer: inactive: -2.97%

Question: Which activity change (PNC), negative = inhibition does the source give for `Cc1nn(C)cc1CNC(=O)c1cccc(F)c1` here?
Answer: active: -98%

Question: With `CCCCCCC(=O)N(O)C1CC(=O)N(Cc2ccccc2)C1=O` (stereo not given) as the molecule, how does the activity change (PNC), negative = inhibition read?
Answer: inconclusive: -35.2%

Question: With `CCCn1c(=O)c2ccccc2n2c(SCc3c(C(=O)OCC)oc4ccccc34)nnc12` as the molecule, how does the activity change (PNC), negative = inhibition read?
Answer: inconclusive: -64.1%

Question: Which activity change (PNC), negative = inhibition does the source give for `COC(=O)c1ccc(CSc2nnnn2-c2ccccc2)o1` here?
Answer: inactive: -14.2%

Question: For `O=C(c1cc(-c2ccc(Cl)cc2)on1)N1CCOCC1`, which activity change (PNC), negative = inhibition is on record?
Answer: inconclusive: -74.1%

Question: With `CCN(CC)S(=O)(=O)c1cccc(C(=O)N[C@H](C(=O)Nc2nc3ccccc3s2)C(C)C)c1` as the molecule, how does the activity change (PNC), negative = inhibition read?
Answer: inconclusive: -70.1%

Question: For `Fc1ccc(C2NC(=S)NC3=C2N2CCC3CC2)cc1` (stereo not given), which activity change (PNC), negative = inhibition is on record?
Answer: inconclusive: -38.2%

Question: Which activity change (PNC), negative = inhibition does the source give for `O=C(CN1C(=O)c2ccccc2C1=O)Nc1ccccc1C(=O)N1CCCC1` here?
Answer: inconclusive: -47.4%

Question: With `COc1nnc(-c2ccccc2)s1` as the molecule, how does the activity change (PNC), negative = inhibition read?
Answer: inconclusive: -77.3%

Question: Which activity change (PNC), negative = inhibition does the source give for `Cc1nnc(N)nc1C` here?
Answer: inconclusive: -49.2%

Question: Which activity change (PNC), negative = inhibition does the source give for `NC(=O)C1CCN(C(c2ccccc2)c2nnnn2C2CCCC2)CC1` (stereo not given) here?
Answer: inconclusive: -65.3%

Question: With `Clc1ccc2oc3c(Cl)ncnc3c2c1` as the molecule, how does the activity change (PNC), negative = inhibition read?
Answer: inactive: -20.4%

Question: For `O=C(Nc1cccc(F)c1)c1ccccc1-c1ccccc1`, which activity change (PNC), negative = inhibition is on record?
Answer: active: -103%

Question: Which activity change (PNC), negative = inhibition does the source give for `COc1ccc(NC(=S)Nc2cccc3cnccc23)cc1` here?
Answer: inactive: -9.61%

Question: For `COc1cc(NC(=O)C2CCN(S(=O)(=O)c3cccc4nonc34)CC2)cc(OC)c1`, which activity change (PNC), negative = inhibition is on record?
Answer: inconclusive: -47.2%

Question: For `COC(=O)c1cc2ccccn2c2c(C(=O)OC)c(C(=O)OC)cc1-2`, which activity change (PNC), negative = inhibition is on record?
Answer: inactive: 46.6%

Question: Which activity change (PNC), negative = inhibition does the source give for `COc1ccccc1NC(=S)NCc1ccc2c(c1)OCO2` here?
Answer: inconclusive: -45.9%

Question: With `COc1cccc(-c2nc(CS(=O)(=O)CC(=O)NCc3ccc(Cl)cc3)c(C)o2)c1` as the molecule, how does the activity change (PNC), negative = inhibition read?
Answer: inconclusive: -33.8%

Question: For `C=CCOc1c(Br)cc(/C=N/O)cc1OCC`, which activity change (PNC), negative = inhibition is on record?
Answer: active: -109%

Question: For `COC(=O)c1sccc1NC(=O)c1c(C)c(-c2cccc(Cl)c2)nc2ccccc12`, which activity change (PNC), negative = inhibition is on record?
Answer: inconclusive: -39.4%

Question: For `O=C(NCC(c1cccnc1)N1CCOCC1)Nc1ccccc1` (stereo not given), which activity change (PNC), negative = inhibition is on record?
Answer: inconclusive: -40%

Question: With `O=S(=O)(NC1c2cccc3cccc(c23)C1N1CCNCC1)c1ccccc1` (stereo not given) as the molecule, how does the activity change (PNC), negative = inhibition read?
Answer: inconclusive: -58%
